Measurements from US11129782B2, “Derivatives of PPD useful for coloring hair and skin” (National University of Singapore, priority 2017, dated 2021).

How the values were obtained:
[1] = Hair dyeing of bleached hair, colour obtained
[2] = Quantification of compounds from extracted dyed hair samples using LCMS; conditions: LC-MS
[3] = Colour intensity measurement of dyed hair (chromometer; L*a*b*, RGB index); conditions: for ΔE / ΔH: vs natural hair
[4] = PPD/PPD derivative alone, no H2O2, no resorcinol
[5] = C: with coupling agent Resorcinol

Nc1ccc(Nc2ccc(N)cc2)cc1 [PPD derivative 1, 4,4′-Diaminodiphenylamine]
Colour of dyed hair [1, 4]: Black | Colour of dyed hair ([1]; with H2O2): Black | Colour of dyed hair ([1]; with resorcinol and H2O2): Dark Brown | Concentration in extracted hair sample ([2]; Day 1, + H2O2): 0.2188 mg | Concentration in extracted hair sample ([2]; Day 1, + resorcinol + H2O2): 0.1209 mg | Concentration in extracted hair sample ([2]; Day 1, compound only): 2.7319e-05 mg | Concentration in extracted hair sample ([2]; Day 2, + H2O2): 0.2183 mg | Concentration in extracted hair sample ([2]; Day 2, + resorcinol + H2O2): 0.1547 mg | Concentration in extracted hair sample ([2]; Day 2, compound only): 2.257e-05 mg | Concentration in extracted hair sample ([2]; Day 7, + H2O2): 0.2441 mg | Concentration in extracted hair sample ([2]; Day 7, + resorcinol + H2O2): 0.1227 mg | Concentration in extracted hair sample ([2]; Day 7, compound only): 2.461e-05 mg | RGB index B ([3]; A: derivative only): 31 | RGB index G ([3]; A: derivative only): 28 | RGB index R ([3]; A: derivative only): 29 | L* ([3]; A: without any oxidant): 11 | a* ([3]; A: without any oxidant): 1 | b* ([3]; A: without any oxidant): 2 | ΔE ([3]; A: without any oxidant): 2 | ΔH ([3]; A: without any oxidant): 1.41 | RGB index B ([3]; B: derivative with H2O2): 26 | RGB index G ([3]; B: derivative with H2O2): 25 | RGB index R ([3]; B: derivative with H2O2): 26 | L* ([3]; B: with oxidant H2O2): 9 | a* ([3]; B: with oxidant H2O2): 1 | b* ([3]; B: with oxidant H2O2): 1 | ΔE ([3]; B: with oxidant H2O2): 1 | ΔH ([3]; B: with oxidant H2O2): 1 | RGB index B ([3]; C: derivative with resorcinol): 26 | RGB index G ([3]; C: derivative with resorcinol): 25 | RGB index R ([3]; C: derivative with resorcinol): 26 | L* [3, 5]: 9 | a* [3, 5]: 1 | b* [3, 5]: 1 | ΔE [3, 5]: 1 | ΔH [3, 5]: 1

Nc1ccc(Nc2ccc(Nc3ccc(N)cc3)cc2)cc1 [PPD derivative 2, N^1,N^4-bis(4-aminophenyl)-1,4-benzenediamine]
Colour of dyed hair [1, 4]: Bluish purple | Colour of dyed hair ([1]; with H2O2): Grey | Colour of dyed hair ([1]; with resorcinol and H2O2): light Grey | Concentration in extracted hair sample ([2]; Day 1, + H2O2): 0.1975 mg | Concentration in extracted hair sample ([2]; Day 1, + resorcinol + H2O2): 0.09764 mg | Concentration in extracted hair sample ([2]; Day 1, compound only): 0.2473 mg | Concentration in extracted hair sample ([2]; Day 2, + H2O2): 0.1433 mg | Concentration in extracted hair sample ([2]; Day 2, + resorcinol + H2O2): 0.1228 mg | Concentration in extracted hair sample ([2]; Day 2, compound only): 0.2242 mg | Concentration in extracted hair sample ([2]; Day 7, + H2O2): 0.1752 mg | Concentration in extracted hair sample ([2]; Day 7, + resorcinol + H2O2): 0.1054 mg | Concentration in extracted hair sample ([2]; Day 7, compound only): 0.2323 mg | RGB index B ([3]; A: derivative only): 54 | RGB index G ([3]; A: derivative only): 57 | RGB index R ([3]; A: derivative only): 34 | L* ([3]; A: without any oxidant): 22 | a* ([3]; A: without any oxidant): 4 | b* ([3]; A: without any oxidant): 1 | ΔE ([3]; A: without any oxidant): 4.12 | ΔH ([3]; A: without any oxidant): 2 | RGB index B ([3]; B: derivative with H2O2): 81 | RGB index G ([3]; B: derivative with H2O2): 83 | RGB index R ([3]; B: derivative with H2O2): 75 | L* ([3]; B: with oxidant H2O2): 35 | a* ([3]; B: with oxidant H2O2): 5 | b* ([3]; B: with oxidant H2O2): 0 | ΔE ([3]; B: with oxidant H2O2): 5.47 | ΔH ([3]; B: with oxidant H2O2): 2 | RGB index B ([3]; C: derivative with resorcinol): 64 | RGB index G ([3]; C: derivative with resorcinol): 63 | RGB index R ([3]; C: derivative with resorcinol): 67 | L* [3, 5]: 49 | a* [3, 5]: 8 | b* [3, 5]: 8 | ΔE [3, 5]: 7.41 | ΔH [3, 5]: 3.87

CCCCC(CC)COc1cc(N)ccc1N (centres unmarked) [PPD derivative 3, 2-((2-ethylhexyl)oxy)benzene-1,4-diamine]
Colour of dyed hair [1, 4]: Purple | Colour of dyed hair ([1]; with H2O2): Black | Colour of dyed hair ([1]; with resorcinol and H2O2): Black | RGB index B ([3]; A: derivative only): 26 | RGB index G ([3]; A: derivative only): 25 | RGB index R ([3]; A: derivative only): 26 | L* ([3]; A: without any oxidant): 17 | a* ([3]; A: without any oxidant): 13 | b* ([3]; A: without any oxidant): 2 | ΔE ([3]; A: without any oxidant): 4.69 | ΔH ([3]; A: without any oxidant): 3.74 | RGB index B ([3]; C: derivative with resorcinol): 54 | RGB index G ([3]; C: derivative with resorcinol): 35 | RGB index R ([3]; C: derivative with resorcinol): 34 | L* [3, 5]: 9 | a* [3, 5]: 6 | b* [3, 5]: 1 | ΔE [3, 5]: 2.44 | ΔH [3, 5]: 2.44

CCCCCCOc1cc(N)ccc1N [PPD derivative 4, 2-hexyloxy-1,4-diaminobenzene]
Colour of dyed hair [1, 4]: Magenta | Colour of dyed hair ([1]; with H2O2): Black | Colour of dyed hair ([1]; with resorcinol and H2O2): Dark magenta | RGB index B ([3]; A: derivative only): 32 | RGB index G ([3]; A: derivative only): 38 | RGB index R ([3]; A: derivative only): 30 | L* ([3]; A: without any oxidant): 16 | a* ([3]; A: without any oxidant): 7 | b* ([3]; A: without any oxidant): 0 | ΔE ([3]; A: without any oxidant): 3.6 | ΔH ([3]; A: without any oxidant): 2.44 | RGB index B ([3]; C: derivative with resorcinol): 48 | RGB index G ([3]; C: derivative with resorcinol): 42 | RGB index R ([3]; C: derivative with resorcinol): 60 | L* [3, 5]: 21 | a* [3, 5]: 10 | b* [3, 5]: 3 | ΔE [3, 5]: 4.89 | ΔH [3, 5]: 3.46

CCCCCCOc1cc(Nc2ccc(N)cc2)ccc1N [PPD derivative 5, 4-Amino-(3-hexyloxy)-4′-aminodiphenylamine]
Colour of dyed hair [1, 4]: Black | Colour of dyed hair ([1]; with H2O2): Black | Colour of dyed hair ([1]; with resorcinol and H2O2): Dark brown | RGB index B ([3]; A: derivative only): 31 | RGB index G ([3]; A: derivative only): 28 | RGB index R ([3]; A: derivative only): 29 | L* ([3]; A: without any oxidant): 9 | a* ([3]; A: without any oxidant): 0 | b* ([3]; A: without any oxidant): 1 | ΔE ([3]; A: without any oxidant): 0 | ΔH ([3]; A: without any oxidant): 0 | RGB index B ([3]; B: derivative with H2O2): 26 | RGB index G ([3]; B: derivative with H2O2): 25 | RGB index R ([3]; B: derivative with H2O2): 26 | L* ([3]; B: with oxidant H2O2): 11 | a* ([3]; B: with oxidant H2O2): 1 | b* ([3]; B: with oxidant H2O2): 2 | ΔE ([3]; B: with oxidant H2O2): 2 | ΔH ([3]; B: with oxidant H2O2): 1.41 | RGB index B ([3]; C: derivative with resorcinol): 26 | RGB index G ([3]; C: derivative with resorcinol): 25 | RGB index R ([3]; C: derivative with resorcinol): 26 | L* [3, 5]: 9 | a* [3, 5]: 1 | b* [3, 5]: 1 | ΔE [3, 5]: 1 | ΔH [3, 5]: 1

CCCCCCOC(=O)c1cc(Nc2ccc(N)cc2)ccc1N [PPD derivative 6, hexyl 2-amino-5-((4-aminophenyl)amino)benzoate]
Colour of dyed hair [1, 4]: Green | Colour of dyed hair ([1]; with H2O2): Dark Green | L* ([3]; A: without any oxidant): 45 | a* ([3]; A: without any oxidant): 3 | b* ([3]; A: without any oxidant): 1 | ΔE ([3]; A: without any oxidant): 6.2 | ΔH ([3]; A: without any oxidant): 1.7 | L* ([3]; B: with oxidant H2O2): 9 | a* ([3]; B: with oxidant H2O2): 6 | b* ([3]; B: with oxidant H2O2): 1 | ΔE ([3]; B: with oxidant H2O2): 2.4 | ΔH ([3]; B: with oxidant H2O2): 2.4

CCCCCCOC(=O)c1cc(N)ccc1N [PPD derivative 15, Hexyl-2,5-diaminobenzoate]
Colour of dyed hair [1, 4]: Brown | Colour of dyed hair ([1]; with H2O2): Black | L* ([3]; A: without any oxidant): 14 | a* ([3]; A: without any oxidant): 1 | b* ([3]; A: without any oxidant): 3 | ΔE ([3]; A: without any oxidant): 3.1 | ΔH ([3]; A: without any oxidant): 2.2 | L* ([3]; B: with oxidant H2O2): 9 | a* ([3]; B: with oxidant H2O2): 0 | b* ([3]; B: with oxidant H2O2): 1 | ΔE ([3]; B: with oxidant H2O2): 0 | ΔH ([3]; B: with oxidant H2O2): 0

Nc1ccc(N)cc1 [PPD, para-phenylenediamine, reference compound]
Colour of dyed hair [1, 4]: no colour | Colour of dyed hair ([1]; with H2O2): Black | Colour of dyed hair ([1]; with resorcinol and H2O2): Brown | Concentration in extracted hair sample ([2]; Day 1, + H2O2): 0.00086 mg | Concentration in extracted hair sample ([2]; Day 1, + resorcinol + H2O2): 0.001337 mg | Concentration in extracted hair sample ([2]; Day 1, compound only): 0.001517 mg | Concentration in extracted hair sample ([2]; Day 2, + H2O2): 0.00085 mg | Concentration in extracted hair sample ([2]; Day 2, + resorcinol + H2O2): 0.00142 mg | Concentration in extracted hair sample ([2]; Day 2, compound only): 0.001568 mg | Concentration in extracted hair sample ([2]; Day 7, + H2O2): 0.001138 mg | Concentration in extracted hair sample ([2]; Day 7, + resorcinol + H2O2): 0.001504 mg | Concentration in extracted hair sample ([2]; Day 7, compound only): 0.001264 mg | RGB index B ([3]; A: derivative only): 135 | RGB index G ([3]; A: derivative only): 177 | RGB index R ([3]; A: derivative only): 200 | L* ([3]; A: without any oxidant): 57 | a* ([3]; A: without any oxidant): 0 | b* ([3]; A: without any oxidant): 30 | ΔE ([3]; A: without any oxidant): 8.77 | ΔH ([3]; A: without any oxidant): 5.38 | RGB index B ([3]; B: derivative with H2O2): 37 | RGB index G ([3]; B: derivative with H2O2): 31 | RGB index R ([3]; B: derivative with H2O2): 62 | L* ([3]; B: with oxidant H2O2): 14 | a* ([3]; B: with oxidant H2O2): 1 | b* ([3]; B: with oxidant H2O2): 3 | ΔE ([3]; B: with oxidant H2O2): 2.82 | ΔH ([3]; B: with oxidant H2O2): 1.73 | RGB index B ([3]; C: derivative with resorcinol): 26 | RGB index G ([3]; C: derivative with resorcinol): 25 | RGB index R ([3]; C: derivative with resorcinol): 26 | L* [3, 5]: 9 | a* [3, 5]: 0 | b* [3, 5]: 1 | ΔE [3, 5]: 0 | ΔH [3, 5]: 0
